Among the data in patent US20150232546A1 (THROMBOGENICS, published 2015) are binding values, retold here.

T1: human PDGF-C peptide no. 61 (human)
T1 sequence (peptide, N-terminally biotinylated): SLTDVALEHHEECDC

B1: anti-PDGF-C antibody 5A2 (antibody, IgG2b, V domains shown)
VH: EVQLVESGGDLVKPGGSLKLSCAASGFTFSNYGMSWVRQTPDKRLEWVATIGSGGHYTYYPDSVKGRFTISRDSAKSTLYLQMSSLKSEDTAIYYCARQAPLWDCSDYWGQGTTLTVSS
VL: DVLMTQTPLSLPVSLGDQASISCRSNQSIVHSNGDTYLEWYLQKPGQSPKLLIYKVSNRFSGVPDRFSGSGSGTDFTLKISRVEAEDLGVYYCFQGSHVPPTFGGGTKLEIK
notes: Mouse monoclonal from hybridoma, IgG2b, kappa; also called mAb 5A2; hybridoma LMBP 9484CB
B2: anti-PDGF-C antibody 5H7 (antibody, IgG1, V domains shown)
VH: EVQLVESGGDLVKPGGSLKLSCAASGFTFSSYGMSWVRQTPDKRLEWVATIGYGGSFTYYPDSMKGRFTISRDNAKNTLFLQMSSLKSEDTAIYYCVRQAPLWDYFDYWGQGTTLTVSS
VL: DVLMTQTPLSLPVSLGDQASISCRSSQTIVHSDGTTYLEWYLQKAGQSPKLLIYKVSNRFSGVPDRFSGSGSGTDFTLKISRVEAEDLGVYYCFQGSHVPPTFGGGTKLEIK
notes: Mouse monoclonal from hybridoma, IgG1, kappa; also called mAb 5H7; hybridoma LMBP 9485CB
B3: anti-PDGF-C antibody 29H1 (antibody, IgG1, V domains shown)
VH: EVQLVESGGDLVKPGGSLKLSCAASGFTFSNYGMSWVRQTPDKRLEWVATIGSGGHYTYYPDSVKGRFTISRDSAKSTLYLQMSSLRSDDTAIYYCARQAPLWDCSDYWGQGTTLTVSS
VL: DVLMTQTPLSLPVSLGDQASISCRSNQSIVHSNGDTYLEWYLQKPGQSPNLLIYKVSNRFSGVPDRFSGSGSGTDFTLKISRVEAEDLGVYYCFQGSHVPPTFGGGTKLEIK
notes: Mouse monoclonal from hybridoma, IgG1, kappa; also called mAb 29H1; hybridoma LMBP 9487CB
B4: anti-PDGF-C antibody 16B1 (antibody, IgG1, V domains shown)
VH: EVQLVESGGDLVKPGGSLKLSCAASGFTFSNYGMSWVRQTPDKRLEWVATIGSGGSYTYYPDSVKGRFTISRDSAKNTLYLQMSSLKSEDTAMYYCARQAPLWDYSDYWGQGTTLTVSS
VL: DVLMTQTPLSLPVSLGDQASISCRSNQSIVHSNGDTYLEWYLQKPGQSPKLLIYKVSNRFSGVPDRFSGSGSGTDFTLKISRVEAEDLGVYYCFQGSHVPPTFGGGTKLEIK
notes: Mouse monoclonal from hybridoma, IgG1, kappa; VH same as 2D3, VL same as 5A2; also called mAb 16B1; hybridoma LMBP 9486CB
B5: anti-PDGF-C antibody 2D3 (antibody, IgG1, V domains shown)
VH: EVQLVESGGDLVKPGGSLKLSCAASGFTFSNYGMSWVRQTPDKRLEWVATIGSGGSYTYYPDSVKGRFTISRDSAKNTLYLQMSSLKSEDTAMYYCARQAPLWDYSDYWGQGTTLTVSS
VL: DVLMTQTPLSLPVSLGDQASISCRSNQTIVHSNGDTYLEWYLQKPGQSPNLLIYKVSNRFSGVPDRFSGSGSGTDFTLKISRVEAEDLGVYYCFQGSHVPPTFGGGTKLEIK
notes: Mouse monoclonal from hybridoma, IgG1, kappa; also called mAb 2D3; hybridoma LMBP 9483CB

Results are given in words; binding and its absence hold for the method and conditions named.

The assay concerns the target T1, human PDGF-C peptide no. 61 (human). Kind of assay: peptide ELISA.
Regarding B1, the binding entry is reported as “no binding (tested: 1 µg/mL)”. Regarding B2, the binding entry is recorded as “no binding (tested: 1 µg/mL)”. For the molecule B3, the binding result is recorded as “no binding (tested: 1 µg/mL)”. The result for B4 reads “no binding (tested: 1 µg/mL)”; that for B5, “no binding (tested: 1 µg/mL)”.
